PubChem BioAssay AID1259424, University of Nebraska Medical Center, 2018
In all, the deposit lists about 14,000 reagents; below is a part drawn at random. 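Higher correlation or smaller distance means closer resemblance to KSR1 loss; control wells, including KSR1 knockdowns, recur on many plates.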 Reagents against one gene are numbered here. Further read-outs or replicates are left out here. The record does not give: the time to read-out.

Assay: 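Rank knockdowns across the genome by resemblance to the KSR1 depletion profile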 (primary screen)
System: human HCT116 colon cancer cells
Reagents: siRNA pool against human genes, 50 nM
Measurement: 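Six signature mRNAs by branched-DNA multiplex assay, scaled to two housekeeping genes and non-targeting median, log2; matched to mean KSR1 knockdown profile by Pearson correlation and euclidean distance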
Scale: mean correlation with KSR1 profile and KSR1 correlation: higher = expression change more like KSR1 knockdown; mean distance from KSR1 profile: higher = expression change less like KSR1 knockdown

Gene	pool no.	mean correlation with KSR1 profile	mean distance from KSR1 profile	KSR1 correlation, replicate 1
BNIP3 (BCL2 interacting protein 3)	1	0.323	3.33	0.331
KRT16 (keratin 16)	1	0.0304	1.79	0.0291
SST (somatostatin)	1	0.293	4.08	0.551
AP1G1 (adaptor related protein complex 1 subunit gamma 1)	1	-0.434	2.35	-0.369
SIGLEC9 (sialic acid binding Ig like lectin 9)	1	-0.217	2.08	-0.514
NXN (nucleoredoxin)	1	0.124	1.46	-0.0293
GIGYF1 (GRB10 interacting GYF protein 1)	1	-0.34	2.06	-0.254
PKDREJ (polycystin family receptor for egg jelly)	1	0.0507	1.37	0.206
EMC6 (ER membrane protein complex subunit 6)	1	0.732	2.88	0.6
TALDO1 (transaldolase 1)	1	0.264	2.09	0.354
PITPNM1 (phosphatidylinositol transfer protein membrane associated 1)	1	-0.216	2.67	-0.242
PLAAT2 (phospholipase A and acyltransferase 2)	1	0.213	2.8	0.462
TNFSF15 (TNF superfamily member 15)	1	0.719	2.57	0.804
TEF (TEF transcription factor, PAR bZIP family member)	1	-0.758	2.53	-0.821
PSEN2 (presenilin 2)	1	-0.497	3.01	-0.544
SNX5 (sorting nexin 5)	1	-0.332	2.33	-0.294
EPCIP (exosomal polycystin 1 interacting protein)	1	-0.435	3.43	-0.362
ICOS (inducible T cell costimulator)	1	0.0841	2.13	-0.045
SERPINA6 (serpin family A member 6)	1	0.695	1.5	0.626
SETD1B (SET domain containing 1B, histone lysine methyltransferase)	1	-0.448	2.45	-0.108
ZFYVE26 (zinc finger FYVE-type containing 26)	1	-0.536	3.63	-0.512
PROK1 (prokineticin 1)	1	0.196	2.51	0.33
ZNF142 (zinc finger protein 142)	1	0.0527	2.92	0.038
SLC25A32	1	0.0847	1.84	-0.195
TANC2	1	-0.243	2.15	-0.225
PURG (purine rich element binding protein G)	1	-0.292	2.42	-0.625
PPIP5K1 (diphosphoinositol pentakisphosphate kinase 1)	1	-0.351	1.7	-0.335
SSPOP (SCO-spondin, pseudogene)	1	-0.451	4.11	-0.494
EXTL3 (exostosin like glycosyltransferase 3)	1	0.542	1.41	0.809
KRT1 (keratin 1)	1	-0.645	2.29	-0.738
RAB23 (RAB23, member RAS oncogene family)	1	-0.198	2.01	-0.503
PTGR1 (prostaglandin reductase 1)	1	-0.252	1.6	-0.00962
MAFG (MAF bZIP transcription factor G)	1	0.517	1.19	0.638
MAFG (MAF bZIP transcription factor G)	2	0.118	2.35	0.133
DCTD (dCMP deaminase)	1	-0.00606	2.26	0.0537
ABCC9 (ATP binding cassette subfamily C member 9)	1	-0.0538	1.17	0.23
CCNG1 (cyclin G1)	1	-0.171	1.51	-0.303
HOOK3 (hook microtubule tethering protein 3)	1	0.79	1.54	0.633
NDEL1 (nudE neurodevelopment protein 1 like 1)	1	-0.347	2.14	-0.518
GPAA1 (glycosylphosphatidylinositol anchor attachment 1)	1	0.286	2.27	0.371
CYB5R3 (cytochrome b5 reductase 3)	1	-0.00273	2.72	-0.307
UQCRH (ubiquinol-cytochrome c reductase hinge protein)	1	0.0914	3.22	0.207
AGPAT4-IT1 (AGPAT4 intronic transcript 1)	1	-0.496	2.69	-0.353
IL22RA1 (interleukin 22 receptor subunit alpha 1)	1	0.878	0.641	0.714
ARHGEF4 (Rho guanine nucleotide exchange factor 4)	1	-0.132	1.63	-0.324
GFRA2 (GDNF family receptor alpha 2)	1	0.0995	2.74	0.0832
CYP27A1 (cytochrome P450 family 27 subfamily A member 1)	1	0.199	2.45	0.462
ZBTB10 (zinc finger and BTB domain containing 10)	1	-0.391	2.79	-0.254
MYT1 (myelin transcription factor 1)	1	0.191	1.75	0.545
RIDA (reactive intermediate imine deaminase A)	1	0.0268	1.54	0.0465

Laid out differently: 8 of the entries above.
{"Gene":"PKDREJ (polycystin family receptor for egg jelly)","pool no.":1,"mean correlation with KSR1 profile":0.0507,"mean distance from KSR1 profile":1.37,"KSR1 correlation, replicate 1":0.206}
{"Gene":"EMC6 (ER membrane protein complex subunit 6)","pool no.":1,"mean correlation with KSR1 profile":0.732,"mean distance from KSR1 profile":2.88,"KSR1 correlation, replicate 1":0.6}
{"Gene":"TALDO1 (transaldolase 1)","pool no.":1,"mean correlation with KSR1 profile":0.264,"mean distance from KSR1 profile":2.09,"KSR1 correlation, replicate 1":0.354}
{"Gene":"PITPNM1 (phosphatidylinositol transfer protein membrane associated 1)","pool no.":1,"mean correlation with KSR1 profile":-0.216,"mean distance from KSR1 profile":2.67,"KSR1 correlation, replicate 1":-0.242}
{"Gene":"PLAAT2 (phospholipase A and acyltransferase 2)","pool no.":1,"mean correlation with KSR1 profile":0.213,"mean distance from KSR1 profile":2.8,"KSR1 correlation, replicate 1":0.462}
{"Gene":"TNFSF15 (TNF superfamily member 15)","pool no.":1,"mean correlation with KSR1 profile":0.719,"mean distance from KSR1 profile":2.57,"KSR1 correlation, replicate 1":0.804}
{"Gene":"TEF (TEF transcription factor, PAR bZIP family member)","pool no.":1,"mean correlation with KSR1 profile":-0.758,"mean distance from KSR1 profile":2.53,"KSR1 correlation, replicate 1":-0.821}
{"Gene":"PSEN2 (presenilin 2)","pool no.":1,"mean correlation with KSR1 profile":-0.497,"mean distance from KSR1 profile":3.01,"KSR1 correlation, replicate 1":-0.544}
